SMILES strings stand for the structures. Where “and” joins values, the source holds several entries; their conditions need not be identical. Equal entries are not always repeated. ± gives the standard deviation of the averaged measurements. Only a part is listed here, and it is no random draw. Single values are uncertain here, since repeats match poorly.

Here are results for 49 compounds from the supplement of paper PMC4962491.

The test has as its system FaDu. As to the kind of experiment: mitochondrial oxygen consumption rate normalised to cell number, Z score over the library; higher = higher oxygen consumption (negative = OCR reduction). To be noted: treatment time 24 h, assay medium: 5 mM galactose, 5 mM pyruvate, 4 mM glutamine. As to the method: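 Primary screen: FaDu cells were incubated 24 h with Pharmakon 1600 / TDI oncology set compounds at 2 or 10 uM. Mitochondrial-specific OCR (basal minus 2 uM antimycin A) was measured on a Seahorse XF96 in assay medium with 5 mM galactose, 5 mM pyruvate and 4 mM glutamine, then corrected for Hoechst cell number and expressed as a Z score […]. Compounds that cut cell number by >66% were excluded. Two repeats.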

As to `[Ca+2].[Cl-].[Cl-]`, the “mitochondrial oxygen consumption rate normalised” value (2 µM) is 1.07 ± 0.35.

`OC1(c2ccc(Cl)c(C(F)(F)F)c2)CCN(CCCC(c2ccc(F)cc2)c2ccc(F)cc2)CC1`: for the setting “2 µM”, the “mitochondrial oxygen consumption rate normalised” value stood at 0.316 ± 0.41.

Consider `C[C@@H]1C[C@H]2[C@@H]3CCC4=CC(=O)C=C[C@]4(C)[C@@]3(F)[C@@H](O)C[C@]2(C)[C@@]1(O)C(=O)CO`, for which the “mitochondrial oxygen consumption rate normalised” value (2 µM) is 0.0776 ± 0.95.

On to `CCCCNc1ccc(C(=O)OCCOCCOCCOCCOCCOCCOCCOCCOCCOC)cc1`, for which the “mitochondrial oxygen consumption rate normalised” value (2 µM) was 1.25 ± 0.76.

As for `CC(C)(Oc1ccc(C(=O)c2ccc(Cl)cc2)cc1)C(=O)O`, the “mitochondrial oxygen consumption rate normalised” value (2 µM) was -0.0736 ± 0.75.

`Cc1cc(/C=C/c2ccc3cc(N(C)C)ccc3[n+]2C)c(C)n1-c1ccccc1`: the “mitochondrial oxygen consumption rate normalised” value (2 µM) is -6.776 ± 0.056.

For the compound `CCn1nc(C(=O)O)c(=O)c2cc3c(cc21)OCO3`, the “mitochondrial oxygen consumption rate normalised” value (2 µM) was -0.365 ± 0.2.

With `CC1=Nc2ccc(Cl)cc2S(=O)(=O)N1`, the “mitochondrial oxygen consumption rate normalised” value (2 µM) was -0.196 ± 0.23.

Regarding `CO[C@@]12[C@H](COC(N)=O)C3=C(C(=O)C(C)=C(N)C3=O)N1C[C@@H]1N[C@@H]12`, the “mitochondrial oxygen consumption rate normalised” value (2 µM) was -1.67 and -1.32.

As to `CC(C(=O)O)c1ccc(N2Cc3ccccc3C2=O)cc1` (stereo unspecified), under “2 µM”, the “mitochondrial oxygen consumption rate normalised” value is -0.425 ± 0.52.

Regarding `CN(C)CCOc1ccc(/C(=C(/CCCl)c2ccccc2)c2ccccc2)cc1`, the “mitochondrial oxygen consumption rate normalised” value (2 µM) was -0.0358 ± 0.092.

As for `CCN1CCN(C(=O)N[C@@H](C(=O)N[C@@H]2C(=O)N3C(C(=O)O)=C(CSc4nnnn4C)CS[C@H]23)c2ccc(O)cc2)C(=O)C1=O`, under “2 µM”, the “mitochondrial oxygen consumption rate normalised” value was 0.627 ± 0.53.

For the compound `O=C(NCCO[N+](=O)[O-])c1cccnc1`, the “mitochondrial oxygen consumption rate normalised” value (2 µM) amounted to 0.359 ± 0.018.

Consider `Cc1ccc(Cl)c(Nc2ccccc2C(=O)O)c1Cl`, for which, where the note is “2 µM”, the “mitochondrial oxygen consumption rate normalised” value amounted to 0.732 ± 0.15.

In the case of `C[C@H]1C[C@H]2[C@@H]3CCC4=CC(=O)C=C[C@]4(C)[C@@]3(F)[C@@H](O)C[C@]2(C)[C@@]1(O)C(=O)CO`, the “mitochondrial oxygen consumption rate normalised” value (2 µM) was -0.172 ± 0.22.

Turning to `Oc1ccc(OCc2ccccc2)cc1`, the “mitochondrial oxygen consumption rate normalised” value (2 µM) turned out to be 0.393 ± 0.2.

Regarding `CN(C)[C@@H]1C(O)=C(C(=O)NCN2CCCC2)C(=O)[C@@]2(O)C(O)=C3C(=O)c4c(O)cccc4[C@@](C)(O)[C@H]3C[C@@H]12`, for the setting “2 µM”, the “mitochondrial oxygen consumption rate normalised” value was -0.77 ± 0.28.

Take `Cc1c(N(C)CS(=O)(=O)O)c(=O)n(-c2ccccc2)n1C`: the “mitochondrial oxygen consumption rate normalised” value (2 µM) amounted to 1.11 ± 1.4.

Consider `O=S(=O)([O-])NC1CCCCC1.[Na+]`, for which the “mitochondrial oxygen consumption rate normalised” value (2 µM) was -3.27 ± 0.22.

As to `CCN(CC)CCc1nc(-c2ccccc2)no1`, for the setting “2 µM”, the “mitochondrial oxygen consumption rate normalised” value is -0.224 ± 0.42.

As for `CCc1cn([C@H]2C[C@H](O)[C@@H](CO)O2)c(=O)[nH]c1=O`, under “2 µM”, the “mitochondrial oxygen consumption rate normalised” value was determined as 1.3 ± 0.53.

In the case of `CC(C)NC[C@@H](O)COc1cccc2ccccc12`, the “mitochondrial oxygen consumption rate normalised” value (2 µM) was determined as 0.514 ± 0.96.

As to `O=S(=O)(O)NC1CCCCC1`, under “2 µM”, the “mitochondrial oxygen consumption rate normalised” value worked out at 0.957 ± 1.4.

For the compound `O=c1oc2ccccc2c(O)c1Cc1c(O)c2ccccc2oc1=O`, under “2 µM”, the “mitochondrial oxygen consumption rate normalised” value was -0.00856 ± 1.6.

Consider `CN1CCN(CCCN2c3ccccc3Sc3ccc(Cl)cc32)CC1`, for which the “mitochondrial oxygen consumption rate normalised” value (2 µM) came to 1.2 ± 0.69.

As to `NCC(O)CC(=O)O` (stereo unspecified), the “mitochondrial oxygen consumption rate normalised” value (2 µM) was -0.0811 ± 0.86.

For the compound `NNc1nncc2ccccc12`, the “mitochondrial oxygen consumption rate normalised” value (2 µM) is -0.191 ± 0.69.

As for `CC(=O)OCC(CCn1cnc2cnc(N)nc21)COC(C)=O`, the “mitochondrial oxygen consumption rate normalised” value (2 µM) came out at 0.244 ± 0.75.

For the compound `C[C@H](CCC(=O)O)[C@H]1CC[C@H]2[C@@H]3[C@H](O)C[C@@H]4C[C@H](O)CC[C@]4(C)[C@H]3CC[C@]12C`, the “mitochondrial oxygen consumption rate normalised” value (2 µM) came out at 0.0511 ± 0.2.

As to `C1CNCCN1`, where the note is “2 µM”, the “mitochondrial oxygen consumption rate normalised” value is 1.34 ± 0.45.

`COc1c2occc2c(OC)c2c(=O)cc(C)oc12`: the “mitochondrial oxygen consumption rate normalised” value (2 µM) is -0.212 ± 1.1.

Turning to `CC(C)[C@H](N)C(=O)OCC(CO)OCn1cnc2c(=O)nc(N)[nH]c21` (stereo partly specified), the “mitochondrial oxygen consumption rate normalised” value was -0.121 ± 0.18 (2 µM) and 1.37 ± 0.77 (10 µM).

In the case of `NC(=O)c1ccc([N+](=O)[O-])cc1Cl`, the “mitochondrial oxygen consumption rate normalised” value (2 µM) is -0.18 ± 0.84.

Turning to `O=C1OCCN1/N=C/c1ccc([N+](=O)[O-])o1`, the “mitochondrial oxygen consumption rate normalised” value (2 µM) was -0.505 ± 0.48.

As to `CCC(=O)O[C@]1(C(=O)CCl)[C@@H](C)C[C@H]2[C@@H]3CCC4=CC(=O)C=C[C@]4(C)[C@@]3(F)[C@@H](O)C[C@@]21C`, the “mitochondrial oxygen consumption rate normalised” value (2 µM) is 0.48 ± 1.3.

Take `c1ccc([C@H]2CN3CCSC3=N2)cc1`: for the setting “2 µM”, the “mitochondrial oxygen consumption rate normalised” value amounted to 0.973 ± 0.6.

As to `Cc1c(O)c(=O)ccn1C`, the “mitochondrial oxygen consumption rate normalised” value (2 µM) is -0.293 ± 0.87.

On to `COc1cc([C@@H]2c3cc4c(cc3[C@@H](O[C@@H]3O[C@@H]5CO[C@@H](C)O[C@H]5[C@H](O)[C@H]3O)[C@H]3COC(=O)[C@H]23)OCO4)cc(OC)c1O`, for which, under “2 µM”, the “mitochondrial oxygen consumption rate normalised” value was -0.58 ± 0.35.

In the case of `COc1cc([C@@H]2c3cc4c(cc3[C@@H](O[C@@H]3O[C@@H]5CO[C@@H](C)O[C@H]5[C@H](O)[C@H]3O)[C@H]3COC(=O)[C@H]23)OCO4)cc(OC)c1O` [Etoposide], under “2 µM”, the “mitochondrial oxygen consumption rate normalised” value was 1.04 ± 0.18.

Take `COc1ccccc1OCC(O)CN1CCN(CC(=O)Nc2c(C)cccc2C)CC1` (stereo unspecified): for the setting “2 µM”, the “mitochondrial oxygen consumption rate normalised” value is -0.199 ± 1.1.

For `CCCNCC(O)COc1ccccc1C(=O)CCc1ccccc1` (stereo unspecified), under “2 µM”, the “mitochondrial oxygen consumption rate normalised” value is -0.722 ± 0.35.

Regarding `NC(=O)C(c1ccccc1)(c1ccccc1)[C@@H]1CCN(CCc2ccc3c(c2)CCO3)C1`, for the setting “2 µM”, the “mitochondrial oxygen consumption rate normalised” value is -0.0494 ± 0.29.

With `C[C@H]1C[C@@H]2[C@H]([C@@H](O)C[C@@]3(C)[C@H]2CC[C@]3(O)C(=O)CO)[C@@]2(C)C=CC(=O)C=C12`, the “mitochondrial oxygen consumption rate normalised” value (2 µM) is -0.254 ± 0.34.

For the compound `O=C(O)c1cc(-c2ccccc2)nc2ccccc12`, the “mitochondrial oxygen consumption rate normalised” value by setting is: (2 µM) -0.284 ± 0.97; (10 µM) 0.349 ± 0.05.

With `CC(=O)O[C@]1(C(C)=O)CC[C@H]2[C@@H]3C[C@H](C)C4=CC(=O)CC[C@]4(C)[C@H]3CC[C@@]21C`, the “mitochondrial oxygen consumption rate normalised” value (2 µM) was -1.01 ± 0.12.

Take `CC(C)NCC(O)c1ccc2ccccc2c1` (stereo unspecified): where the note is “2 µM”, the “mitochondrial oxygen consumption rate normalised” value was 0.0225 ± 0.0052.

For the compound `CN(C)c1nc(N(C)C)nc(N(C)C)n1` [Altretamine], the “mitochondrial oxygen consumption rate normalised” value (2 µM) came out at 0.603 ± 0.096.

On to `CN(C)c1nc(N(C)C)nc(N(C)C)n1`, for which, where the note is “2 µM”, the “mitochondrial oxygen consumption rate normalised” value is 0.84 ± 0.26.

For `CCN[C@H]1CN(CCCOC)S(=O)(=O)c2sc(S(N)(=O)=O)cc21`, the “mitochondrial oxygen consumption rate normalised” value (2 µM) was -0.221 ± 0.41.
